In US9617279B1, “Imidazooxadiazole compounds” (BRISTOL-MYERS SQUIBB COMPANY, priority 2014, dated 2017):
Some results were stated once for a whole list of compounds, not compound by compound.

Each compound was assayed against T1, human PAR4 (Homo sapiens, UniProt Q96RI0) (assay: FLIPR assay in PAR4-expressing HEK293 cells (calcium mobilization)). Conditions: PAR4 antagonist activity, agonist peptide-induced calcium mobilization.
T1 construct: expressed in transfected cells; host or cells: HEK293 PAR4 Clone 1.2A
T1 sequence (Q96RI0 18-385): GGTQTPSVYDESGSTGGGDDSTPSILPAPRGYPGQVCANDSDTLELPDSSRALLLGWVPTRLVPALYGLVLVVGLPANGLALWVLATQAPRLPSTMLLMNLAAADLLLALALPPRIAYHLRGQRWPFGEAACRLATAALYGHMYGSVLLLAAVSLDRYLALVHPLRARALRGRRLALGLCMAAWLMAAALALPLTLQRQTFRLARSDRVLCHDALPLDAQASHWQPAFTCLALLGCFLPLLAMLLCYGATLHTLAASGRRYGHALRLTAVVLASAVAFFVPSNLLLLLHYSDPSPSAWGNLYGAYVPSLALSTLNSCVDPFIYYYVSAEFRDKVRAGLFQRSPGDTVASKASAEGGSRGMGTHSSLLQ
Format: cell-based

EC50, < 5 µM:
CCc1nn2cc(-c3cc4c(OCc5ccccc5)cc(OC)cc4o3)nc2o1 [Example 1, 6-(4-(benzyloxy)-6-methoxybenzofuran-2-yl)-2-ethylimidazo[2,1-b][1,3,4]oxadiazole]
COc1cc(OCc2ccccc2)c2cc(-c3cn4nc(C)oc4n3)oc2c1 [Example 3, 6-(4-(benzyloxy)-6-methoxybenzofuran-2-yl)-2-methylimidazo[2,1-b][1,3,4]oxadiazole]
CCc1nn2cc(-c3cc4c(OCc5csc(-c6ccc(C(=O)N(C)C)cc6)n5)cc(OC)cc4o3)nc2o1 [Example 2, 4-(4-(((2-(2-ethylimidazo[2,1-b][1,3,4]oxadiazol-6-yl)-6-methoxybenzofuran-4-yl)oxy)methyl)thiazol-2-yl)-N,N-dimethylbenzamide]
COc1cc(OCc2csc(-c3ccc(C(=O)N(C)C)cc3)n2)c2cc(-c3cn4nc(C)oc4n3)oc2c1 [Example 4, 4-(4-(((6-methoxy-2-(2-methylimidazo[2,1-b][1,3,4]oxadiazol-6-yl)benzofuran-4-yl)oxy)methyl)thiazol-2-yl)-N,N-dimethylbenzamide]
